From paper doi:10.1101/2025.03.28.645988
No constants are given. Whether binding was seen depends on the method and setting. Binding seen in cells or lysates may run through a third protein. Binding calls can cover weak binding; strength is not graded here.

Sequences of proteins named here, by UniProt entry; tags and fusion partners are left off. A change or cut given only in a name is not applied to a line headed by its entry.
UniProt P25095: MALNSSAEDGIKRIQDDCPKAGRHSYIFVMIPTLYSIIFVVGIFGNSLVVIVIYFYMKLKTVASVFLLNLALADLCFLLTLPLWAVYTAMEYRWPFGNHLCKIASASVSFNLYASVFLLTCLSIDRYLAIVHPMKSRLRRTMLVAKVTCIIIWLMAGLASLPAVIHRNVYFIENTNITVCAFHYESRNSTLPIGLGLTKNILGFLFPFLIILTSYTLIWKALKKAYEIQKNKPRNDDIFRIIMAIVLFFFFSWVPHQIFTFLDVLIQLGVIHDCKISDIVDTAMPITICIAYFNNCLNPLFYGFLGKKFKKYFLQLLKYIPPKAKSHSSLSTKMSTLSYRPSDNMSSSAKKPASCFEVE
UniProt P29066: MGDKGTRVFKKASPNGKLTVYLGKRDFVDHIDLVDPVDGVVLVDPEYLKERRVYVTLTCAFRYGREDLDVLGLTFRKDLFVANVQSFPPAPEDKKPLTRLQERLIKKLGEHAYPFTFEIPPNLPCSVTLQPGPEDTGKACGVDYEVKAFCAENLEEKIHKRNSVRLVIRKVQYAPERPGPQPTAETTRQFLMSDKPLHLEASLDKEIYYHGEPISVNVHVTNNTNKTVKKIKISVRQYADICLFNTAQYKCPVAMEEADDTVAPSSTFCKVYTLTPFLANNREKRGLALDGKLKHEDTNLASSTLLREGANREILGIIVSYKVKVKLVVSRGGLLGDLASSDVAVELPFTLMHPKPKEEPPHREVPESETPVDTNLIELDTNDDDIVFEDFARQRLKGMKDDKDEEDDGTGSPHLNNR
UniProt P29067: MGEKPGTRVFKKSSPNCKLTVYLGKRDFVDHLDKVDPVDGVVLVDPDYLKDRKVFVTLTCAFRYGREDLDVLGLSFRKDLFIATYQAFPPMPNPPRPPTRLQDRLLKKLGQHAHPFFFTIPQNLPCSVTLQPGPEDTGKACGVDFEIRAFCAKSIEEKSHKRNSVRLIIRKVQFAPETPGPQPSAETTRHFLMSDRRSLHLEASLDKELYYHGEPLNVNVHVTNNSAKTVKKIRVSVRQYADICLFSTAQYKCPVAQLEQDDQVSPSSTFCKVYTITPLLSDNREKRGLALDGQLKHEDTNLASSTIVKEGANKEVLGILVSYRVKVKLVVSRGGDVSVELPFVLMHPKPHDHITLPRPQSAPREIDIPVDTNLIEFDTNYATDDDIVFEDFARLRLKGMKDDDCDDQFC

Molecular target: DRY/AAY mutant AT1 angiotensin II receptor, Luciferase-tagged (AT1R-DRY-RLuc) (UniProt P25095)
Experiment: FRET or BRET; BRET between AT1R-Luciferase (wild type or DRY mutant) and mVenus-tagged β-arrestins in living β-arrestin1/2 double KO HEK293 cells; stimulation with 100 nM AngII; 37°C, modified Krebs-Ringer buffer pH 7.4, 5 μM coelenterazine h; ratios against DMSO-treated cells, AUC compared

Row | Substance | binding
1 | β-arrestin1-mVenus (rat β-arrestin1, wild type) (from UniProt P29066 1-418) | binds
2 | β-arrestin2-mVenus (rat β-arrestin2, wild type) (from UniProt P29067 1-410) | binds
